# From PMC10589313 (Nature Communications, 2023)
# Amino acid sequences for entries named in this document (tags omitted).
# UniProt Q9H3N8, whole entry D94A: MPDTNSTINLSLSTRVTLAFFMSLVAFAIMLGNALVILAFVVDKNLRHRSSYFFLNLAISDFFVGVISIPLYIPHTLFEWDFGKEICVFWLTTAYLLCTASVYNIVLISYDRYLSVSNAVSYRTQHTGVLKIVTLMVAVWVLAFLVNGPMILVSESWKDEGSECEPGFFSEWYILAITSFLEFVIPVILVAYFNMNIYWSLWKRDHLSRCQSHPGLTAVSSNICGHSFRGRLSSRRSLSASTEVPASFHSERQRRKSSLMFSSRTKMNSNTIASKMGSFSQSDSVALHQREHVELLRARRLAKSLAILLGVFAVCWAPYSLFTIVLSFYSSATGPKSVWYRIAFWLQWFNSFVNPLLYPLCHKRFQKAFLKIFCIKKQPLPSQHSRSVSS
# UniProt Q9H3N8, whole entry Y95A: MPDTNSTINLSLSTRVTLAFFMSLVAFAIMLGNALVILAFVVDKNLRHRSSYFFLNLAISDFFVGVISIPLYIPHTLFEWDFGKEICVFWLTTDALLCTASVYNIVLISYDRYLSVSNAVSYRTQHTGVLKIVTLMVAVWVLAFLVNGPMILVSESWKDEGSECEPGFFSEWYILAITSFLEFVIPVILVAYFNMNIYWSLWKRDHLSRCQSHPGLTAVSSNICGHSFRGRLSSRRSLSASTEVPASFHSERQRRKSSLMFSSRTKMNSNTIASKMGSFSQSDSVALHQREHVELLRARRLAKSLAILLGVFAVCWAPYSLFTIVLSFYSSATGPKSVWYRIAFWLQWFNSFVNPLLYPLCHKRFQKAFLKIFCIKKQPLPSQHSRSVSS
# UniProt Q9H3N8, whole entry C98A: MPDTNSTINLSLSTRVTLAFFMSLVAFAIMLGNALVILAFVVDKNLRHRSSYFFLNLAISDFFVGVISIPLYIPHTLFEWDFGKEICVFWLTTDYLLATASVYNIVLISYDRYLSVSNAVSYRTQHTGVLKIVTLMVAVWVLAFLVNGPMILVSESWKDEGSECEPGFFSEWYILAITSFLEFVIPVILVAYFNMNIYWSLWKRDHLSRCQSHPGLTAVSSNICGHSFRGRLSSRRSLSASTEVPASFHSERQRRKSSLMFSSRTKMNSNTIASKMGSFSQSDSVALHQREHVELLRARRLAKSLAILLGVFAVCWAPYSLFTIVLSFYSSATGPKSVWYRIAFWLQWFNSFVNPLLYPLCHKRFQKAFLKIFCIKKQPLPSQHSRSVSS
# UniProt Q9H3N8, whole entry T99A: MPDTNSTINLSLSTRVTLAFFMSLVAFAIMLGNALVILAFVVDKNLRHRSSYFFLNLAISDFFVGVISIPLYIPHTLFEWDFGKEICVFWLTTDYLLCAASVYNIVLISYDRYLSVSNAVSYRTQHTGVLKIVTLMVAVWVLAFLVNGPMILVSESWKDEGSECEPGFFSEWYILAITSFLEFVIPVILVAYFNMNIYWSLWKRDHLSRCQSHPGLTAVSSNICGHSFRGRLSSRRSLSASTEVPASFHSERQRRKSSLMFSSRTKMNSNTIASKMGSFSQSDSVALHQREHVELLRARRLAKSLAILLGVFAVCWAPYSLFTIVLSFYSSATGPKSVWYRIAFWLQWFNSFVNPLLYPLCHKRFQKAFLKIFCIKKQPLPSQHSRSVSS
# UniProt Q9H3N8, whole entry N147A: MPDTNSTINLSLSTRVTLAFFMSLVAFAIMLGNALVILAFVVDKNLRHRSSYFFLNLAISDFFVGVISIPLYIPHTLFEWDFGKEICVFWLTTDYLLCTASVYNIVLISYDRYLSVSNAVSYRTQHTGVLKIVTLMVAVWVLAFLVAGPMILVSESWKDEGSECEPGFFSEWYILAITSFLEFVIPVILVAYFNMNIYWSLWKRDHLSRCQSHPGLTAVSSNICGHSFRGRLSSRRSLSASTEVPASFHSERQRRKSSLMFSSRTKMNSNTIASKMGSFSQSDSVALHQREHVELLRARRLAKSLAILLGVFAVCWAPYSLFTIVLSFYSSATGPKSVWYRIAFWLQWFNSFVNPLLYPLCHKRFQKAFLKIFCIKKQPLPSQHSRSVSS
# UniProt Q9H3N8, whole entry N147W: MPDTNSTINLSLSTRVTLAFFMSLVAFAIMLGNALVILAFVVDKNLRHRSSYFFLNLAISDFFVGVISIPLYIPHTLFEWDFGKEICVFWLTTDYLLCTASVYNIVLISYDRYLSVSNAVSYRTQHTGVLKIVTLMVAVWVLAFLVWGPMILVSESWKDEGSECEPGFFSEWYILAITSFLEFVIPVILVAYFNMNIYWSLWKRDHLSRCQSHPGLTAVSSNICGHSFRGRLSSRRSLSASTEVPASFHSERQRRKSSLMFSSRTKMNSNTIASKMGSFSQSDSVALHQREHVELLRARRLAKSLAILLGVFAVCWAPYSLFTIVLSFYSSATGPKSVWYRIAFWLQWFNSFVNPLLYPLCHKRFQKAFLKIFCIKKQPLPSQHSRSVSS
# UniProt Q9H3N8, whole entry N147Y: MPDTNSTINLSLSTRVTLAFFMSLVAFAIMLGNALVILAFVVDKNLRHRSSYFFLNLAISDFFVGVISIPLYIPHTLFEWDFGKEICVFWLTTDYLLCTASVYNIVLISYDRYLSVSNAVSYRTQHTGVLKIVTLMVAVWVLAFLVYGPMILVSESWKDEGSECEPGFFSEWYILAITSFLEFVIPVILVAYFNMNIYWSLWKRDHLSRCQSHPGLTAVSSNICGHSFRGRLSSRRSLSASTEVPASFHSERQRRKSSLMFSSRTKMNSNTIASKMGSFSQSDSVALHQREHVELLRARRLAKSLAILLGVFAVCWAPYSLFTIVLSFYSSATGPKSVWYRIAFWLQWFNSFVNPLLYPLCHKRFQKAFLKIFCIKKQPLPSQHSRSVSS
# Values joined by “and” are separate entries in the source; they are usually repeats but may differ in a detail not shown here. Identical values can stand only once. The source gives many values for each of these; only a part stands here.
# Tests used:
# Type in all cases: cell-based
# [1] = target: T1, human wild-type H4R (Homo sapiens, UniProt Q9H3N8); assay: TGFα shedding assay, wild-type H4R; conditions: WT, raw replicates
# T1 construct: a mutant H4R (human, full-length, and untagged); expressed in transfected cells; host or cells: HEK293A
# Experimental: (§1) The mutants were prepared using the primers listed in Supplementary Table 2. […] The chimeric Gαq/i1 subunit comprises the Gαq backbone and Gαi1-derived six-amino acid C-terminus and couples with Gi-coupled H4R but induces a Gq-dependent TGFα shedding response. After culturing for 1 day and incubating at 37 °C in a 5% CO2 incubator, the transfected cells were harvested by trypsinization, neutralized with Dulbecco’s modified Eagle’s medium containing 10% fetal calf serum (FCS) and penicillin–streptomycin, washed once with Hank’s balanced salt solution (HBSS) containing 5 mM of HEPES (pH 7.4), and resuspended in 6 mL of the HEPES-containing HBSS. The cell suspension was seeded into a 96-well plate at a volume of […] per well (typically, 48 wells per transfected cells) and incubated for 30 min in the CO2 incubator. Test compounds (10×, diluted in 0.01% BSA and 5 mM of HEPES-containing HBSS, […] volume) were added to duplicate wells and incubated for 1 h. After centrifugation, the conditioned medium ([…]) was transferred to an empty 96-well plate. AP reaction solution [10 mM of p-nitrophenylphosphate (p-NPP), 120 mM of Tris–HCl (pH 9.5), 40 mM of NaCl, and 10 mM of MgCl2] was dispensed into the cell culture plates and plates containing conditioned media ([…]). Absorbance was measured at 405 nm before and after a 1-h incubation period at 25 °C using a microplate reader (iMark™ Microplate Absorbance Reader; BioRad). Ligand-induced AP-TGFα release was calculated as previously described. The vehicle-treated AP-TGFα release signal was set as a baseline unless otherwise specified. AP-TGFα release signals were fitted with a four-parameter sigmoidal concentration-response curve, from which EC50 and Emax values were obtained, using GraphPad Prism 9 software (GraphPad Prism). Negative values of logarithmically transformed EC50 values (pEC50) were used to calculate the mean and standard error of independent experiments.
# (§2) All functional study data were analyzed using Prism 9 (GraphPad) and are presented as mean ± standard error of the mean (SEM) of three independent experiments. Statistical analyses were performed using Prism 9 (GraphPad) with one-way analysis of variance followed by Dunnett’s post-hoc test. Values with p < 0.05 are considered statistically significant.
# [2] = target: T2, human H4R D94A mutant (Homo sapiens, UniProt Q9H3N8, D94A); assay: TGFα shedding assay, H4R D94A mutant
# T2 construct: a mutant H4R (human, full-length, and untagged); expressed in transfected cells; host or cells: HEK293A
# Experimental: as §1, §2
# [3] = target: T3, human H4R Y95A mutant (Homo sapiens, UniProt Q9H3N8, Y95A); assay: TGFα shedding assay, H4R Y95A mutant
# T3 construct: a mutant H4R (human, full-length, and untagged); expressed in transfected cells; host or cells: HEK293A
# Experimental: as §1, §2
# [4] = target: T4, human H4R C98A mutant (Homo sapiens, UniProt Q9H3N8, C98A); assay: TGFα shedding assay, H4R C98A mutant
# T4 construct: a mutant H4R (human, full-length, and untagged); expressed in transfected cells; host or cells: HEK293A
# Experimental: as §1, §2
# [5] = target: T5, human H4R T99A mutant (Homo sapiens, UniProt Q9H3N8, T99A); assay: TGFα shedding assay, H4R T99A mutant
# T5 construct: a mutant H4R (human, full-length, and untagged); expressed in transfected cells; host or cells: HEK293A
# Experimental: as §1, §2
# [6] = target: T6, human H4R N147A mutant (Homo sapiens, UniProt Q9H3N8, N147A); assay: TGFα shedding assay, H4R N147A mutant
# T6 construct: a mutant H4R (human, full-length, and untagged); expressed in transfected cells; host or cells: HEK293A
# Experimental: as §1, §2
# [7] = target: T7, human H4R N147W mutant (Homo sapiens, UniProt Q9H3N8, N147W); assay: TGFα shedding assay, H4R N147W mutant
# T7 construct: a mutant H4R (human, full-length, and untagged); expressed in transfected cells; host or cells: HEK293A
# Experimental: as §1, §2
# [8] = target: T8, human H4R N147Y mutant (Homo sapiens, UniProt Q9H3N8, N147Y); assay: TGFα shedding assay, H4R N147Y mutant
# T8 construct: a mutant H4R (human, full-length, and untagged); expressed in transfected cells; host or cells: HEK293A
# Experimental: as §1, §2
# [9] = Histamine (M) -5, raw replicates
# [10] = Histamine (M) -6, raw replicates
# [11] = Histamine (M) -7, raw replicates
# [12] = Histamine (M) -8, raw replicates
# [13] = Histamine (M) -9, raw replicates
# [14] = Histamine (M) -10, raw replicates
structure (smiles),measurement,setting,value
"NCCc1c[nH]cn1 [Histamine, histamine]",Shedding assay,[1]; Histamine (M) -5,13.4317 and 20.1507 and 20.5166 and 22.0896 and 22.8765 and 20.6545 and 18.8786 and 23.132 and 15.2758
same,Shedding assay,[1]; Histamine (M) -6,13.5445 and 19.6346 and 13.4371 and 20.4676 and 20.7552 and 19.7471 and 18.1598 and 26.3691 and 11.4508
same,Shedding assay,[1]; Histamine (M) -7,6.4045 and 14.0667 and 9.796 and 14.9021 and 15.4382 and 15.7515 and 12.6686 and 19.7118 and 5.431
same,Shedding assay,[1]; Histamine (M) -8,0.9367 and 6.063 and 1.876 and 5.768 and 5.352 and 6.224 and -1.741 and 8.453 and 5.4087
same,Shedding assay,[1]; Histamine (M) -9,-1.421 and 2.5994 and 1.097 and 1.42 and 0.9948 and 0.8499 and 0.3332 and 2.711 and 0.08921
same,Shedding assay,[1]; Histamine (M) -10,-1.238 and 1.128 and 0.1186 and 0.7386 and 2.154 and 1.724 and -0.1425 and 2.261 and -2.819
same,Shedding assay,[2]; [9],-2.627 and -0.5435 and -1.634 and 0.2165 and 1.147 and 2.538 and -1.401 and -0.5234 and 4.792
same,Shedding assay,[2]; [10],-2.905 and -1.315 and -1.632 and 2.459 and 0.7774 and 3.096 and -0.3815 and -0.8815 and 2.002
same,Shedding assay,[2]; [11],-3.462 and -2.691 and -1.9326 and 1.564 and -0.214 and 0.4839 and -2.735 and -1.851 and 4.699
same,Shedding assay,[2]; [12],-2.53 and -1.213 and -2.2775 and 1.276 and -0.4549 and 1.763 and -3.129 and -3.122 and 5.7144
same,Shedding assay,[2]; [13],-1.034 and -1.549 and -1.1201 and 0.4177 and -3.096 and 1.249 and -5.99 and 0.07075 and 5.674
same,Shedding assay,[2]; [14],-2.758 and -0.6865 and -1.195 and 1.168 and -0.634 and 1.295 and -0.9831 and 1.667 and 7.52
same,Shedding assay,[3]; [9],6.183 and 5.172 and 7.902 and 6.184 and 3.683 and 11.5556 and 7.447 and 8.205 and 7.387
same,Shedding assay,[3]; [10],1.605 and 0.1712 and 3.752 and 0.9166 and 2.1167 and -4.444 and 1.447 and 4.174 and 3.275
same,Shedding assay,[3]; [11],-0.832 and -2.636 and 0.9201 and -0.7225 and 0.7174 and -7.161 and -2.328 and -0.0448 and -1.764
same,Shedding assay,[3]; [12],-0.08522 and -3.264 and 0.6026 and 0.1509 and -0.7574 and 3.166 and -0.5372 and -3.942 and 0.5003
same,Shedding assay,[3]; [13],-0.9628 and -6.759 and -1.743 and -2.7401 and -1.392 and 1.984 and -1.957 and -0.3227 and -0.9256
same,Shedding assay,[3]; [14],0.8876 and -2.531 and 0.9123 and -1.685 and 1.324 and 3.171 and -0.6723 and -2.186 and 1.209
same,Shedding assay,[4]; [9],14.0761 and 13.0306 and 15.3801 and 14.3097 and 16.1295 and 15.6589 and 11.2456 and 17.6619 and 19.1026
same,Shedding assay,[4]; [10],5.435 and 5.689 and 6.993 and 3.179 and 8.045 and 5.041 and 11.1173 and 5.623 and 9.968
same,Shedding assay,[4]; [11],1.098 and 0.1734 and 2.653 and -0.7217 and 0.4464 and -16.3414 and 3.994 and -4.307 and 1.4085
same,Shedding assay,[4]; [12],0.9963 and -0.6657 and 1.892 and -3.236 and -0.7519 and -10.6874 and 4.811 and -6.9 and 1.124
same,Shedding assay,[4]; [13],0.2357 and -0.08985 and 1.169 and -4.604 and 1.265 and 3.021 and 3.385 and -3.516 and 0.4855
same,Shedding assay,[4]; [14],-0.2955 and 1.5585 and 1.271 and -0.5371 and 0.2242 and -1.083 and 3.32 and -0.4573 and -1.124
same,Shedding assay,[5]; [9],18.2052 and 32.5905 and 16.8537 and 31.7808 and 29.7103 and 34.4811 and 15.8247 and 17.4448 and 16.925
same,Shedding assay,[5]; [10],13.2241 and 23.9164 and 10.9821 and 27.1415 and 25.8559 and 30.2883 and 11.7617 and 10.9719 and 11.2113
same,Shedding assay,[5]; [11],5.162 and 14.3843 and 7.929 and 17.2954 and 13.901 and 14.2605 and 5.373 and 6.529 and 5.716
same,Shedding assay,[5]; [12],-4.2708 and 7.237 and 0.9758 and 4.661 and 2.68 and 3.92 and -0.3411 and 1.285 and -0.7717
same,Shedding assay,[5]; [13],-2.9591 and 3.985 and -1.556 and 2.388 and -1.793 and 1.392 and -1.415 and -0.5215 and -1.893
same,Shedding assay,[5]; [14],-1.542 and -5.2111 and -5.302 and 1.645 and -0.2888 and 1.08 and -2.176 and -1.164 and -2.05
same,Shedding assay,[6]; [9],10.4061 and 12.4445 and 8.396 and 15.0426 and 16.8382 and 15.0732 and 11.7364 and 15.7804 and 15.0385
same,Shedding assay,[6]; [10],5.741 and 10.8609 and 1.664 and 9.016 and 12.138 and 9.834 and 9.461 and 12.0236 and 12.9763
same,Shedding assay,[6]; [11],1.655 and 3.5384 and -2.249 and 3.528 and 2.95 and 2.395 and 1.043 and 2.58 and 4.1364
same,Shedding assay,[6]; [12],-3.407 and -1.5823 and 1.169 and 0.7407 and -1.206 and 0.6255 and -2.598 and 0.05751 and -1.889
same,Shedding assay,[6]; [13],-4.666 and 0.3943 and 0.584 and 1.4037 and -0.1249 and 0.4736 and -2.098 and -1.359 and -3.573
same,Shedding assay,[6]; [14],-2.611 and 1.127 (2×) and 1.607 and -1.867 and -0.2252 and -1.705 and 0.343 and -2.622
same,Shedding assay,[7]; [9],5.381 and 9.222 and 9.42 and 10.1239 and 15.5017 and 13.2278 and 5.507 and 4.882 and 4.724
same,Shedding assay,[7]; [10],2.032 and -0.8561 and 1.551 and -0.1708 and 6.864 and 2.726 and 0.302 and -0.9008 and -0.6812
same,Shedding assay,[7]; [11],0.7568 and -4.789 and -0.4819 and -0.7461 and 3.628 and 1.9087 and -0.5968 and -1.731 and -1.483
same,Shedding assay,[7]; [12],0.1994 and -4.789 and 0.8514 and -1.102 and 2.7386 and 0.1171 and -0.4388 and -1.4186 and -2.027
same,Shedding assay,[7]; [13],0.5359 and -5.097 and 0.1294 and -0.9018 and 1.429 and 0.8614 and -1.72 and -5.799 and -1.852
same,Shedding assay,[7]; [14],-0.6476 and -0.9197 and -1.455 and -0.06231 and 2.797 and 1.015 and -0.4662 and -0.7572 and -1.335
same,Shedding assay,[8]; [9],13.7821 and 13.3478 and 12.298 and 12.8327 and 10.2802 and 12.0547 and 11.8144 and 13.2013 and 13.0412
same,Shedding assay,[8]; [10],11.4452 and 12.4855 and 11.893 and 9.67 and 9.387 and 10.7722 and 12.2374 and 14.504 and 13.4798
same,Shedding assay,[8]; [11],7.681 and 7.528 and 5.139 and 6.132 and 4.155 and 5.617 and 6.671 and 8.401 and 8.0366
